This note sets out measurements from publication PMC8033514.

The assay addresses T1, LDB2, endogenous in mouse brain (mouse (endogenous in brain)) (UniProt O55203).
T1 sequence: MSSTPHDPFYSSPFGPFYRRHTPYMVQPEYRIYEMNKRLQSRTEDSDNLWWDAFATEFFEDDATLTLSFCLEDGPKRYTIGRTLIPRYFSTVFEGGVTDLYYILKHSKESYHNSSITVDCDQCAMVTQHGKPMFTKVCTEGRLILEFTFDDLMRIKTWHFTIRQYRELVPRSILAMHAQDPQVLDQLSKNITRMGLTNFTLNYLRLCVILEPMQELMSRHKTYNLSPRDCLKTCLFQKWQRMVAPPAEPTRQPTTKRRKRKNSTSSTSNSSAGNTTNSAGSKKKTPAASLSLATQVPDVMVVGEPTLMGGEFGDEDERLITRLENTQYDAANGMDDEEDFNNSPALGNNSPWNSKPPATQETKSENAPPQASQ
In words: co-IP; endogenous proteins in adult mouse brain lysate; immunocomplexes with an antibody against LDB2, LMO3 or SSBP3 or a control antibody; Western blot with anti-LDB2 or anti-SSBP3. (Immunoblotting shows a protein as a band on a membrane.)

No constants are given. Whether binding was seen depends on the method and setting. In cells and extracts the contact can be indirect. Some results given as binding are weak or reduced against the parent protein; the word gives no strength.

B1: SSBP3, endogenous in mouse brain (protein, UniProt Q9D032 1-388)
chain: MFAKGKGSAVPSDGQAREKLALYVYEYLLHVGAQKSAQTFLSEIRWEKNITLGEPPGFLHSWWCVFWDLYCAAPERRDTCEHSSEAKAFHDYSAAAAPSPVLGNIPPNDGMPGGPIPPGFFQGPPGSQPSPHAQPPPHNPSSMMGPHSQPFMSPRYAGGPRPPIRMGNQPPGGVPGTQPLLPNSMDPTRQQGHPNMGGSMQRMNPPRGMGPMGPGPQNYGSGMRPPPNSLGPAMPGINMGPGAGRPWPNPNSANSIPYSSSSPGTYVGPPGGGGPPGTPIMPSPADSTNSSDNIYTMINPVPPGGSRSNFPMGPGSDGPMGGMGGMEPHHMNGSLGSGDIDGLPKNSPNNISGISNPPGTPRDDGELGGNFLHSFQNDNYSPSMTMSV
Turning to B1, the binding result is “binds”.

B2: LMO3, endogenous in mouse brain (protein, UniProt Q8BZL8 1-145)
chain: MLSVQPDTKPKGCAGCNRKIKDRYLLKALDKYWHEDCLKCACCDCRLGEVGSTLYTKANLILCRRDYLRLFGVTGNCAACSKLIPAFEMVMRAKDNVYHLDCFACQLCNQRFCVGDKFFLKNNMILCQTDYEEGLMKEGYAPQVR
Consider B2, for which the binding result is “binds”.
